Assay results taken from article PMC8265170.
No constants are given. Whether binding was seen depends on the method and setting. Binding seen in cells or lysates may run through a third protein. A yes stands for co-enrichment or nearness to the bait. Other partners may have been found.

Chains of the proteins cited; added tags and fusions are not shown.
UniProt Q92905: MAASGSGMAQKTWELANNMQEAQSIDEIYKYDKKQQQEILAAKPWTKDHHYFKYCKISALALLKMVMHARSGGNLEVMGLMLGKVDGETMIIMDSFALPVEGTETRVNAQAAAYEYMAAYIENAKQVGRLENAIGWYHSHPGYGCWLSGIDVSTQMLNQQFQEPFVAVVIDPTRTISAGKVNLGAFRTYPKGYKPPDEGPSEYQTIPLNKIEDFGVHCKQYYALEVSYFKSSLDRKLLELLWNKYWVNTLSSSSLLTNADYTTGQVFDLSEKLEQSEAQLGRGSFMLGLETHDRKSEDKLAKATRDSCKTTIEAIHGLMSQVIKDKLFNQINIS

Target: T1, S100A7 (intracellular, in KYSE-30 and KYSE-150 cells) (human) (UniProt P31151)
T1 sequence: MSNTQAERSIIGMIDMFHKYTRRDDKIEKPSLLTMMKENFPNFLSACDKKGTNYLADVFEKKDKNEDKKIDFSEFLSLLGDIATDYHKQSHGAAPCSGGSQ
Assay: affinity purification with mass spectrometry; anti-S100A7 co-immunoprecipitation from ESCC cells, precipitate analysed by mass spectrometry

For “C-Jun activation domain-binding protein-1 (JAB1) (from UniProt Q92905 1-334)”, the binding was “binds”.
